Experimental data from PubChem BioAssay AID602296 (Broad Institute, 2012).
Out of some 2,000 compounds screened, about 190 (9.5%) were called active. Another 14% or so got no clear call; they are omitted.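 How the source made its calls: active means fitted activation curve crossing 40% at a concentration no higher than the sample's top valid tested dose; inconclusive means flat fitted curve at 30% to 70% activation, or poor curve fit; inactive means signal decrease, flat curve within 30%, or the rest.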 This part holds few or none of the hits.

experiment: sustained heat shock response element induction – cell-based, mouse, luciferase, cherry-pick, dose, confirmation (AID 602296); conditions: NIH3T3-HGL HSF-1 response element luciferase, 48 h; at 26 µM (top of the series) unless noted;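 further: test compounds applied by themselves with no MG132 co-treatment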

Row | Structure (SMILES) | activation
1 | O=C1CC(N(Cc2ccc3c(c2)OCO3)C(=O)Nc2ccc(F)cc2)C(=O)N1c1ccccc1 (stereo unspecified) | inactive: -26.6%
2 | Cc1[nH][nH]c(=O)c1C=NCc1cccs1 | inactive: 2.6%
3 | CC1=CC(=O)C(C(C)C)=C/C1=N/OS(=O)(=O)c1ccccc1 | inactive: -102%
4 | COc1ccc(-n2c(=O)c3c4c(sc3n(CC(N)=O)c2=O)CCCCC4)cc1 | inactive: 0.737%
5 | Cc1cc(SC#N)cc(C)c1NC(=O)CCl | inactive: -40%
6 | CCN1C(=O)c2cccc3c(S(=O)(=O)Nc4ncccc4C)ccc1c23 | inactive: -42.9%
7 | Cc1ccccc1Cn1c(-c2cncs2)nc2ccccc21 | inactive: 3.23%
8 | O=C(NCCc1ccccc1)N1c2ccccc2Sc2ccccc21 | inactive: -48.5%
9 | COc1cc(-c2nnc3sc(Cc4ccc(Cl)cc4)nn23)cc(OC)c1OC | inactive: -27.6%
10 | Cc1noc(C)c1COC(=O)c1ccccc1Oc1ccccc1 | inactive: -13.4%
11 | Fc1ccc(/C=C2\CCCC3=C2Nc2ncnn2C3c2ccc(F)cc2)cc1 (stereo unspecified) | inactive: -101%
12 | Cc1ccc(C)c(S(=O)(=O)c2c(N)n(/N=C/c3ccco3)c3nc4ccccc4nc23)c1 | inactive: -31.8%
13 | Cc1cc(NC(=O)CCC(=O)N(CC(=O)NC2CCCC2)Cc2cccs2)no1 | inactive: 9.09%
14 | O=C(C#Cc1ccccc1)c1cccc([N+](=O)[O-])c1 | inactive: -96.1%
15 | CCOc1cc(/C=C2\CCCc3c2nc2ccccc2c3C(=O)O)ccc1OC | inactive: 8.24%
16 | O=S(=O)(c1ccc(-n2cnnn2)cc1)N1CCNCC1 | inactive: -0.865%
17 | Cc1c(NC(=O)C(C)N2CC(C)OC(C)C2)c(=O)n(-c2ccccc2)n1C (stereo unspecified) | inactive: 6.22%
18 | O=C(c1ccco1)N(Cc1ccc([N+](=O)[O-])cc1)c1ccc(Br)cc1 | inactive: -59.4%
19 | CCOC(=O)c1sc2nc(CC(=O)OC)nc(NCc3ccco3)c2c1C | inactive: -4.65%
20 | Cc1cccc(-c2cccc(NC(=O)C3CCCN(C(=O)c4cccnc4)C3)c2)c1 (stereo unspecified) | inactive: 4.95%
21 | Cc1ccc(C2=NN(C(=O)c3cccs3)C(c3ccccc3O)C2)cc1 (stereo unspecified) | inactive: 2.65%
22 | C/C=C/c1c(F)c(F)c(Oc2ccc(C(=O)O)cc2)c(F)c1F | inactive: 1.8%
23 | COc1ccccc1CNCC(c1ccccc1)c1ccccc1 | inactive: 0.928%
24 | Nc1nnnn1/N=C\c1ccc(Cl)c([N+](=O)[O-])c1 | inactive: 3.22%
25 | COc1ccc(C2c3ccc(O)cc3Oc3ncn(Cc4ccco4)c(=N)c32)cc1 (stereo unspecified) | inactive: -37.5%
26 | Cc1ccc(Sc2ccc(NC(=O)CCl)cc2)c(C)c1 | inactive: -16.8%

Fetched one by one from the list above, 2 records:
Row | Structure (SMILES) | activation
25 | COc1ccc(C2c3ccc(O)cc3Oc3ncn(Cc4ccco4)c(=N)c32)cc1 (stereo unspecified) | inactive: -37.5%
22 | C/C=C/c1c(F)c(F)c(Oc2ccc(C(=O)O)cc2)c(F)c1F | inactive: 1.8%
